We go through one molecule from publication PMC4914320.

In assay [1] the target is Telomeric repeat binding factor 2 (TRF2), endogenous (human (endogenous in C1, UTC8505, RD and HEK293T cells)). In words: co-IP; IP with antibody to HMGA2 or to TRF2 from nuclear extracts (C1, UTC8505 transfectants, RD); lysis buffer 50 mM Tris-HCl pH 7.5, 150 mM NaCl, 0.2% Triton X-100, 0.3% NP-40; 4°C; protein G-agarose/protein A-sepharose; IgG controls; cells with or without MMS, dox, or RAP1 siRNA.

Assay [2] has the same target. Nature of the assay: proximity ligation; Duolink PLA in fixed, permeabilised C1 cells with antibodies to HMGA2 (D1A7), TRF2 and RAP1; a minimum of 30 nuclei quantified.

These are yes or no findings as the source states them, for the method shown. In cells and extracts the contact can be indirect. Binding can be weak; no strength is given.

B1: RAP1, endogenous (protein, UniProt Q9NYB0 1-399)
chain: MAEAMDLGKDPNGPTHSSTLFVRDDGSSMSFYVRPSPAKRRLSTLILHGGGTVCRVQEPGAVLLAQPGEALAEASGDFISTQYILDCVERNERLELEAYRLGPASAADTGSEAKPGALAEGAAEPEPQRHAGRIAFTDADDVAILTYVKENARSPSSVTGNALWKAMEKSSLTQHSWQSLKDRYLKHLRGQEHKYLLGDAPVSPSSQKLKRKAEEDPEAADSGEPQNKRTPDLPEEEYVKEEIQENEEAVKKMLVEATREFEEVVVDESPPDFEIHITMCDDDPPTPEEDSETQPDEEEEEEEEKVSQPEVGAAIKIIRQLMEKFNLDLSTVTQAFLKNSGELEATSAFLASGQRADGYPIWSRQDDIDLQKDDEDTREALVKKFGAQNVARRIEFRKK
As to B1, the binding result in assay [1] and in assay [2] was “binds” in each case.
